The results in this text go back to the supplement of paper PMC11150407.

Screen size: about 3,000 compounds; about 45 (2%) showed an effect of 50% or more. The list shows a part of the results.

The subject of this experiment is MOLM1 and UCSD/AML1 (averaged). The experiment in a line: cell viability relative to DMSO control (POC); higher = less growth inhibition. Conditions: 1 µM; 72 h. As for the experimental part:
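Primary viability screen in the 3q26 EVI1-high AML cell lines MOLM1 and UCSD/AML1, compounds at 1 uM for 72 h. ATP CellTiter-Glo read-out given as percent viable over DMSO control (POC), averaged over duplicates. This mapping covers the TimTec NDL-3000 natural derivative library, whose compounds are identified by TimTec catalogue codes (ST...).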
On to `CCOc1ccc(-n2c(C)c(C(=O)OCCOC)c3cc(O)c4ccccc4c32)cc1`, for which the cell viability is 67.9%.
The figure for `COC(=O)C1=C(C)NC2=C(C(=O)CC(c3ccc(Cl)cc3)C2)C1c1ccc(O)c(OC)c1` (centres undefined) is 99.8%.
The figure for `COc1ccc(/C=C/C(=O)Nc2ccc(C(C)=O)cc2)cc1OC` is 85.5%; for `Cc1c(C(=O)N2CCOCC2)[nH]c2ccc(OCc3ccccc3)cc12` it is 102%.
For `Cc1cc(C)c2c(CN3CCN(c4cccc(C)c4C)CC3)cc(=O)oc2c1`, the cell viability was 104%.
To `CCOc1cccc2cc(C(=O)NCc3ccccn3)c(=O)oc12` belongs 99.7%.
The figure for `O=C(Cn1c(=O)cc(C(=O)N2CCc3ccccc3C2)c2ccccc21)Nc1ccc(Cl)cc1` is 105%.
As for `Cc1cccc(OCCn2c3nc(=O)[nH]c(=O)c-3nc3cc(C(F)(F)F)ccc32)c1`, the cell viability is 102%.
To `COC(=O)C1=C(C)NC2=C(C(=O)CCC2)C1c1cc(OC)c(OC)c(OC)c1` (centres undefined) belongs 94.9%.
To `COc1cc2c(cc1OC)/C(=C/c1ccc3c(c1)OCO3)C(=O)OC2` belongs 88.9%; to `COc1ccc(/C=C(\NC(=O)c2ccc(Br)cc2)C(=O)NCCc2c(C)[nH]c3ccccc23)cc1`, 94.5%.
For `Cc1[nH]c2c(Cl)cccc2c1CCNC(=O)c1cc(S(=O)(=O)N(C)C)c(Cl)cc1Cl`, the cell viability turned out to be 89.3%.
The figure for `COc1ccc2c(c1)c(CC(=O)N1CCN(C(=O)c3ccccc3)CC1)c(C)n2C(=O)c1ccc(Cl)cc1` is 96.3%; for `COc1ccc(/C=C/C(=O)O)cc1COc1ccccc1` it is 101%.
To `O=c1[nH]c(=O)n(Cc2ccccc2)c2c1C(C(F)(F)F)(C(F)(F)F)N=C(c1ccccn1)N2` belongs 92.1%; to `CCOc1ccccc1C1C2CCCCC2(O)CCN1CC(=O)Nc1sc2c(c1C(=O)OC)CCCC2` (centres undefined), 105%.
As for `COc1cc(C2Nc3ccccc3NC3=C2C(=O)CC(c2ccccc2Cl)C3)cc(OC)c1OC` (centres undefined), the cell viability stood at 116%.
To `CCCc1[nH]nc2c1C(c1ccc(O)cc1)C(C#N)=C(N)O2` (centres undefined) belongs 103%; to `N#Cc1nc2ccccc2n1CC(=O)c1ccc2c(c1)OCCO2`, 89%.
The figure for `COc1c(C)cccc1C(=O)Nc1ccc2oc(=O)ccc2c1` is 102%.
As to `O=C(O)c1ccccc1-c1c2ccc(=O)c(Br)c-2oc2c(Br)c(O)ccc12`, the cell viability came out at 103%.
With `O=c1ccc2cc(Cl)c(O)cc2o1`, the cell viability is 92.8%.
Turning to `CCOc1ccc(NC(=O)Cn2c(=O)cc(C(=O)NC)c3ccccc32)cc1`, the cell viability was determined as 113%.
To `COc1ccc2c(c1)c(CC(=O)NC1CC1)c(C)n2C(=O)c1ccc(Cl)cc1` belongs 90.8%.
For `Cc1cc2c(C(C)C)c(O)c(O)c(C=NCc3cccnc3)c2c(O)c1-c1c(C)cc2c(C(C)C)c(O)c(O)c(C=NCc3cccnc3)c2c1O`, the cell viability was found to be 86.2%.
Regarding `CCN(CC)C(=O)c1cc(=O)n(CC(=O)Nc2ccc(F)cc2)c2ccccc12`, the cell viability was 98.4%.
The figure for `Cc1cccc(/C=N/NC(=O)C(C)Nc2n[nH]c(=O)[nH]c2=O)c1` (centres undefined) is 97.3%.
In the case of `O=C(Nc1ncn(Cc2ccccc2F)n1)c1ccc2c(c1)OCO2`, the cell viability worked out at 94.8%.
As for `Cc1ccc2[nH]c(=O)c(CN(CC3CCCO3)S(=O)(=O)c3cccc4nsnc34)cc2c1` (centres undefined), the cell viability came to 112%.
For `CC(=O)c1c(C)n(CCO)c2ccc(O)cc12`, the cell viability worked out at 113%.
As for `O=C1C2Cc3c([nH]c4ccccc34)C(c3ccccc3)N2C(=S)N1c1ccccc1` (centres undefined), the cell viability came out at 90.6%.
With `O=C(Cn1c(=O)cc(C(=O)NCc2ccccc2)c2ccccc21)Nc1ccccc1F`, the cell viability was found to be 96.4%.
The figure for `O=c1cc(-c2ccccc2)oc2cc(O)c(O)cc12` is 93.2%; for `COC(=O)C(Cc1c[nH]c2ccccc12)NC(=O)COc1ccc2c(C)cc(=O)oc2c1` (centres undefined) it is 91.9%; for `COC1OC(C)C(OCc2ccccc2)C(O)C1O` (centres undefined) it is 96.9%.
To `CCCc1ccc(OCCn2c(C)c(C(=O)OCCOC)c3cc(O)c4ccccc4c32)cc1` belongs 67.3%.
The figure for `COc1cc(Cc2nccc3cc(OC)c(OC)cc23)c(NC(=O)CSC2CCS(=O)(=O)C2)cc1OC` (centres undefined) is 100%; for `O=C(COc1ccc2c(c1)CCCC2)c1ccc2c(c1)OCCO2` it is 102%; for `COc1cc(C(=O)NCCOc2ccc(C)cc2)cc(OC)c1OC` it is 104%.
Regarding `CCCCOc1ccccc1-n1c(-c2cccc(OC)c2)cn2c3c(=O)n(C)c(=O)n(C)c3nc12`, the cell viability was 84.6%.
`O=C(CN1CCc2ccccc2C1)Nc1cc(C(F)(F)F)cc(C(F)(F)F)c1`: the cell viability is 96.2%.
With `CCOC(=O)CNC(=O)c1ccccc1Cl`, the cell viability was 97.7%.
`CCn1cc(C(=O)O)c(=O)c2cnc(N3CCNCC3)nc21`: the cell viability stood at 111%.
With `Cc1[nH]c2ccccc2c1CCNC(=O)c1ccc(C(F)(F)F)cc1`, the cell viability stood at 86.2%.
On to `COc1cc2nc(N3CCN(C(=O)c4ccco4)CC3)nc(N)c2cc1OC`, for which the cell viability was determined as 109%.
The figure for `OC1(c2cc(-c3ccc(F)cc3)no2)CCC2COC1O2` (centres undefined) is 109%; for `CCOc1ccc2oc(=O)cc(Cn3c(=O)c4c(C(=O)OC)cc(C)nc4n(C)c3=O)c2c1` it is 110%.
The figure for `COC(=O)C1=C(C)N(C)C(=O)NC1c1cc(Br)c(O)c(OC)c1` (centres undefined) is 116%.
On to `O=c1cc(-c2ccccc2Br)oc2ccc(Cl)cc12`, for which the cell viability stood at 110%.
The figure for `COc1ccc(C2NC(C(=O)O)Cc3c2[nH]c2ccccc32)cc1CSc1nnc(-c2ccccc2)o1` (centres undefined) is 89.9%.
To `CCn1c(SCC(=O)Nc2ccc(F)cc2F)nc2c(=O)[nH]cnc21` belongs 94.6%; to `COc1cc(C=O)ccc1OC(C)C`, 102%; to `COC(=O)C1=C(N)Oc2c(oc(CO)cc2=O)C1c1c(F)cccc1Cl` (centres undefined), 107%.
The figure for `COc1ccc(C(=O)Nc2cccc(C(=O)c3ccncc3)c2)cc1OC` is 101%; for `O=C(CSc1nc2ccccc2c(=O)[nH]1)NCc1ccccc1` it is 105%; for `Cc1ccc(C(=O)Nc2ccccc2C(=O)NC(Cc2c[nH]c3ccccc23)C(=O)O)cc1` (centres undefined) it is 102%.
For the compound `CCOC(=O)CNC(=O)c1ccc(OC(C)=O)cc1`, the cell viability was 101%.
Regarding `COc1ccc(C(=O)c2sc(Nc3ccc(F)cc3)nc2N)cc1OC`, the cell viability was determined as 101%.
To `CCOC(=O)N1CCc2[nH]c3ccc(Cl)cc3c2C1` belongs 89.6%.
As for `CCCOc1ccc(C2NC(C(=O)O)Cc3c2[nH]c2ccccc32)cc1OC` (centres undefined), the cell viability came to 98%.
To `CCc1ccc(NC(=O)C2=Cc3ccccc3OC2)cc1` belongs 90.1%; to `COc1cc(C2C(C(=O)c3ccc(C)o3)=C(O)C(=O)N2Cc2ccccc2)ccc1O` (centres undefined), 105%.
To `CCOc1cc(C2Nc3ccccc3NC3=C2C(=O)CC(c2cccs2)C3)cc(Br)c1O` (centres undefined) belongs 99%; to `COc1ccc(C(=O)c2sc(Nc3cccc(F)c3)nc2N)cc1OC`, 96.9%.
